PubChem BioAssay AID504808 | Drosophila RNAi Screening Center – 2011
Assay: 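Fly genes required to hold E2F transcription in check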 (primary screen). Cell system: Drosophila S2 cells. Knock-down reagent: long dsRNA against Drosophila genes. Measured: 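Dual luciferase plate measurements; E2F-specific signal taken as firefly over Renilla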. Reading the numbers: E2F firefly: higher = more E2F reporter activity; Renilla normaliser: higher = more normaliser reporter signal. Rule for the call: 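a knock-down counted as active when the firefly/Renilla E2F signal rose above 50%, a threshold chosen arbitrarily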.
In all, the deposit lists about 21,000 reagents; this is an unselected part of those with a known target gene and a result. Of all reagents, 18 (0.084%) are marked active. 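Raw counts without plate normalisation, one of two replicates; the ratio scores behind the calls were not deposited.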 Entries without a mark were called inactive. No sequences are given here. The record does not give: the amount of reagent, the time to read-out.

CG5390 [DRSC02855]: E2F firefly, rep 1 = 1.39e5; Renilla normaliser, rep 1 = 4654
CG17738 [DRSC15257]: E2F firefly, rep 1 = 1.52e5; Renilla normaliser, rep 1 = 6346
CG15199 [DRSC19646]: E2F firefly, rep 1 = 1.25e5; Renilla normaliser, rep 1 = 6255
CG15073 [DRSC06506]: E2F firefly, rep 1 = 1.44e5; Renilla normaliser, rep 1 = 5240
mGluR (metabotropic Glutamate Receptor) [DRSC17215]: E2F firefly, rep 1 = 1.07e5; Renilla normaliser, rep 1 = 6091
dob (doppelganger von brummer) [DRSC19948]: E2F firefly, rep 1 = 8221; Renilla normaliser, rep 1 = 848
TBC1D5 (TBC1 domain family member 5) [DRSC16421]: E2F firefly, rep 1 = 81366; Renilla normaliser, rep 1 = 3778
PpD6 (Protein phosphatase D6) [DRSC00774]: E2F firefly, rep 1 = 1.49e5; Renilla normaliser, rep 1 = 5028
Inx5 (Innexin 5) [DRSC20051]: E2F firefly, rep 1 = 1.33e5; Renilla normaliser, rep 1 = 6364
CG2113 [DRSC08554]: E2F firefly, rep 1 = 96430; Renilla normaliser, rep 1 = 4243
Cipc (Clock interacting protein circadian) [DRSC14898]: E2F firefly, rep 1 = 1756; Renilla normaliser, rep 1 = 868
Cipc (Clock interacting protein circadian) [DRSC14900]: E2F firefly, rep 1 = 98080; Renilla normaliser, rep 1 = 6940
RpL30 (Ribosomal protein L30) [DRSC02087]: E2F firefly, rep 1 = 85318; Renilla normaliser, rep 1 = 4551
Rpt3R (Regulatory particle triple-A ATPase 3-related) [DRSC16501]: E2F firefly, rep 1 = 99209; Renilla normaliser, rep 1 = 7437
drongo [DRSC00814]: E2F firefly, rep 1 = 88371; Renilla normaliser, rep 1 = 4351
CG17928 [DRSC02644]: E2F firefly, rep 1 = 1.02e5; Renilla normaliser, rep 1 = 3746
CG14111 [DRSC10114]: E2F firefly, rep 1 = 1.46e5; Renilla normaliser, rep 1 = 7164
CG5255 [DRSC15754]: E2F firefly, rep 1 = 1.15e5; Renilla normaliser, rep 1 = 5995
MsrA (Methionine sulfoxide reductase A) [DRSC11159]: E2F firefly, rep 1 = 1.58e5; Renilla normaliser, rep 1 = 7414

Entries listed so far whose target name begins with D or d (2):
dob (doppelganger von brummer) [DRSC19948]: E2F firefly, rep 1 = 8221; Renilla normaliser, rep 1 = 848
drongo [DRSC00814]: E2F firefly, rep 1 = 88371; Renilla normaliser, rep 1 = 4351
